Data published in PubChem BioAssay AID1347076 (National Center for Advancing Translational Sciences (NCATS), 2019).
The whole screen tested about 400,000 compounds, of which about 13,000 (3.2%) were called active. The inconclusive results got no clear call from the source; some entries with a clear call stand among them for comparison. Calls come from the whole dose curve; as a rule, active = well fitted cell-killing curve with a large enough effect; inconclusive = small, poorly fitted or top-dose-only effect, or effect the other way; inactive = flat fitted curve, though single readings scatter. Potencies of inconclusive entries are doubtful fits and often do not repeat.

Experiment: qHTS assay for MDR1-selective chemotherapeutics: Primary screen using the drug-selected MDR subline cells KB-V1; note: nearly all actives have a fitted effect of over 60% in size
Conditions: KB-V1 MDR cells viability, CellTiter-Glo, 72 h; activity change, negative = cytotoxicity: at 46.1 µM (top of the series)
Summary of the method: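 Readout: CellTiter-Glo luminescence, 10 min after addition. Cells: KB-V1 MDR subline, 72 h at 37 degrees C with compound. Analysis: corrected, normalized data fitted to concentration-effect curves.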
% is set by controls: 0 for no effect and ±100 for the full control effect; potency is the fitted concentration of half-maximal effect.

Structure (SMILES)	Potency	activity change, negative = cytotoxicity
COc1ccc(CCC(=O)NCC(c2ccco2)N2CCc3ccccc32)cc1 (stereo not given)	inconclusive: 9.2 µM [cytotoxic, partial curve]	
Clc1ccc(OCc2nn3c(C4CCCCC4)nnc3s2)cc1	inconclusive: 20.6 µM [cytotoxic, partial curve]	
CCOC(=O)C(C)n1cnc2c(cnn2-c2ccc(Cl)cc2)c1=O (stereo not given)	inactive	
CC(C)(C)c1ccc(CN(Cc2ccco2)Cc2nnnn2C2CCCC2)cc1	active: 16.4 µM	
CCN1C(=O)[C@H]2[C@@H](c3ccc(-c4ccc(F)cc4)cc3)N3CCCC[C@@]3(C(=O)OC)[C@H]2C1=O	inconclusive: 20.6 µM [cytotoxic, single point]	
CCOc1ccccc1CNC(=O)C1CCN(S(=O)(=O)c2ccc3[nH]c(=O)ccc3c2)CC1	inconclusive: 29.1 µM [rising, single point]	
CCOC(=O)c1c(-c2ccc(C)o2)csc1NC(=O)CSc1nncs1	active: 14.6 µM	
CCN(CC(=O)Nc1c(C(=O)OC)[nH]c2ccc(C)cc12)c1ccc2c(c1)OCO2	active: 7.31 µM	
CN(N=Nc1ccccc1C(=O)O)C1CCCCC1	inactive	
Cc1ccc(-c2ccc3c(c2)O[C@H](CN(C)C(=O)Nc2ccc(C(F)(F)F)cc2)[C@H](C)CN([C@H](C)CO)S3(=O)=O)cc1	inconclusive: 29.1 µM [cytotoxic, single point]	
CCOC(=O)c1c(C)oc2ncnc(Nc3ccc(OC)cc3OC)c12	inconclusive: 29.1 µM [rising, single point]	
O=c1[nH]cnc(O)c1N=Nc1ccccc1	inconclusive: 32.6 µM [cytotoxic, single point]	
CCOc1ccccc1NC(=O)Cn1ncc2c(=O)oc3ccc(C)cc3c21	inconclusive: 14.6 µM [rising, single point]	
COc1ccc(C(=O)NC(=S)NNC(=O)Cc2cccs2)cc1	inactive	
CC(=O)Nc1ccc(C(=O)N/C(=C/c2ccccc2)C(=O)Nc2cccc(C(=O)O)c2)cc1	inconclusive: 7.31 µM [rising, partial curve, poor fit]	
CCN(c1ccccc1)S(=O)(=O)c1ccc(OC)c(NS(=O)(=O)c2cccs2)c1	inconclusive: 16.4 µM [cytotoxic, partial curve, poor fit]	
O=C1/C(=C/c2ccncc2)CCc2ccccc21	active: 14.6 µM	
CCn1c(N)cc(=O)[nH]c1=S	inconclusive: 1.64 µM [rising, full curve]	
CC(c1ccccc1F)n1cc(C(=O)NCCc2ccco2)nn1 (stereo not given)	inconclusive: 16.4 µM [cytotoxic, single point]	
COc1ccc(-c2noc(CSc3nnc(C)n3-c3ccc(C)cc3)n2)cc1OC	inactive	
O=c1cc(-c2cccc(Br)c2)nc(-c2ccccc2F)o1	inactive	
CCN(CC)CCCNc1oc(-c2ccc(OC)c(OC)c2)nc1C#N	inactive	
Cc1ccc(NC2CCCN(C(=O)c3ccccn3)C2)cc1C (stereo not given)	inconclusive: 0.58 µM [rising, full curve]	
Cc1cccc(N2CCN(C(=O)Cc3c(C(=O)O)c(C)cn3C)CC2)c1C	inactive	
O=C(NCC1CCCO1)Nc1cccc(Cl)c1 (stereo not given)	inconclusive: 16.4 µM [rising, partial curve, poor fit]	

Quoted at random: 2 records from the list, in no set order.
Structure (SMILES)	Potency	activity change, negative = cytotoxicity
O=c1cc(-c2cccc(Br)c2)nc(-c2ccccc2F)o1	inactive	
Cc1cccc(N2CCN(C(=O)Cc3c(C(=O)O)c(C)cn3C)CC2)c1C	inactive	

(listing goes on)

Structure (SMILES)	Potency	activity change, negative = cytotoxicity
O=C(CSc1nc2ccccc2[nH]1)Nc1ccc(F)cc1	inactive	
CCN(CC(=O)Nc1ccccc1OC)CC(=O)Nc1ccccc1C(F)(F)F	inconclusive: 10.3 µM [cytotoxic, partial curve, poor fit]	
COc1ccc(-c2nc(C#N)c(N3CCc4ccccc4C3)o2)cc1OC	active: 2.06 µM	
Cc1cc(=O)[nH]c(N/N=C/c2ccccn2)n1	inconclusive: 29.1 µM [cytotoxic, partial curve, poor fit]	
O=C1CC(c2ccco2)Cc2[nH]c(=O)c(C(=O)Nc3ccccc3)cc21 (stereo not given)	inactive	
COc1ccc(C(=O)NCC(=O)OCC(=O)c2ccc(Cl)cc2)cc1OC	inconclusive: 20.6 µM [rising, partial curve, poor fit]	
O=C(NCC1CCCO1)c1ccccc1OCc1ccc(Cl)cc1 (stereo not given)	active: 3.66 µM	
CCOC(=O)c1ccccc1NC(=O)c1n[nH]c(=O)c2ccccc12	inconclusive: 6.51 µM [cytotoxic, partial curve]	
COc1ccc(S(=O)(=O)Nc2cccc3c2O[C@H](CN(C)S(=O)(=O)c2ccccc2)[C@@H](C)CN([C@H](C)CO)C3=O)cc1	inconclusive: 29.1 µM [rising, single point]	
COc1ccc(C(=O)NC(=S)NNC(=O)[C@H]2C[C@@H]2c2ccccc2)cc1OC	inconclusive: 5.8 µM [cytotoxic, partial curve]	
COc1ccc(C(=O)NC2CCCc3ccccc32)cc1[N+](=O)[O-] (stereo not given)	active: 5.8 µM	
COC(=O)c1ccc(Cn2cnc3nc4c(cc3c2=O)CCCC4)cc1	inactive	
CCc1ccc(NC(=O)CCc2ccc(CC)o2)cc1	inactive	
O=C(NC(=S)Nc1cccc([N+](=O)[O-])c1)C1CCCCC1	inconclusive: 18.4 µM [rising, single point]	
CC(=O)Nc1ccc(NC(=O)Cc2ccc(S(=O)(=O)N3CCCCC3)s2)cc1	inconclusive: 10.3 µM [rising, partial curve]	
Cc1ccc2[nH]c(C)c(/C=C/c3cc[n+](C)cc3)c2c1	inactive	
C=CCn1c(SCC(=O)Nc2cc(C)c(Cl)cc2OC)nnc1-c1ccco1	active: 2.31 µM	
O=CN1CCN(C(=S)NC(=O)c2ccc(Cl)cc2)CC1	inactive	
CC(C)(C)c1ccc(OCC(O)CS(=O)(=O)c2ccccn2)cc1 (stereo not given)	inconclusive: 18.4 µM [cytotoxic, single point]	
COc1ccccc1Oc1ccc(-c2cnc3ccccc3n2)cc1[N+](=O)[O-]	inconclusive: 18.4 µM [cytotoxic, single point]	
COc1ccccc1NS(=O)(=O)c1cccc(C(=O)N2CCN(C(=O)c3ccco3)CC2)c1	inactive	
Cc1ccc(C(=O)Nc2cc(C(C)C)c(O)c(C(C)C)c2)cc1	active: 16.4 µM	
C(=C\c1ccccc1)/CN1CCN(C(c2ccccc2)c2nnnn2-c2ccc3c(c2)OCCO3)CC1 (stereo not given)	inactive	
COc1ccc(/C=N/NC(=O)c2cccc(Br)c2)cc1CSc1ccccn1	active: 11.6 µM	
O=C(N/N=C/c1cc(Cl)ccc1O)c1cccnc1	inactive	

Structure (SMILES)	Potency	activity change, negative = cytotoxicity
CCC(Cc1ccccc1)NC(=O)CN1C(=O)COc2ccc(S(=O)(=O)N3CCCCCC3)cc21 (stereo not given)	inactive	
C=CCN(CC=C)C(=O)COC(=O)c1ccc(Sc2ncn[nH]2)c([N+](=O)[O-])c1	inactive	
COc1cccc(NC(=O)CN(C)C(=O)c2ccc(OCc3ccccc3)c(OC)c2)c1	inconclusive: 8.2 µM [cytotoxic, partial curve]	
COc1ccc(CCC(=O)OCc2csc(CC(=O)Nc3ccccc3C)n2)cc1	inactive	
CC(=O)N1CCc2cc(Br)cc(S(=O)(=O)CCC(=O)N3CCN(c4ccccn4)CC3)c21		inconclusive: -12.9%
O=[N+]([O-])c1ccc(C[n+]2ccccc2)cc1	inconclusive: 13 µM [rising, single point]	
CCC(C)NC(=O)CSC1=Nc2ccccc2C2=NC(c3ccccc3)C(=O)N12 (stereo not given)	active: 16.4 µM	
O=C(NCCN1CCOCC1)c1noc2c1CCc1ccccc1-2	active: 11.6 µM	
COc1ccc(OC)c(CN2CCN(C(=O)[C@@H](NC(=O)c3cccc(C)c3)C(C)C)CC2)c1	active: 9.2 µM	
CC(C)CCN(Cc1ccco1)C(=O)c1cc2c(s1)-c1ccccc1OC2	inconclusive: 11.6 µM [cytotoxic, partial curve]	
Cc1ccc(/C=C2\SC(=S)N(CCCC(=O)Nc3ccc(O)cc3)C2=O)cc1	inactive	
CN(C)S(=O)(=O)c1cccc(NC(=O)c2ccc(OC(F)(F)F)cc2)c1	active: 2.59 µM	
O=C(Nc1ccc(OC(F)(F)F)cc1)c1cc(S(=O)(=O)N2CCCCC2)ccc1N1CCOCC1	inactive	
C[C@H](NC(=O)c1nc[nH]c1C(=O)NCc1ccc(CNC(=O)OC(C)(C)C)cc1)c1ccccc1	inconclusive: 29.1 µM [cytotoxic, single point]	
CC(C)CN(CC(C)C)c1ccc(/C=C/c2nc3ccccc3s2)cc1	inconclusive: 29.1 µM [rising, single point]	
CCc1ccc2oc(C(=O)Nc3cccc(Cl)c3C)cc(=O)c2c1	inactive	
O=C(COc1ccccc1F)NC1CC1	inactive	
CC1CN(c2nc3c(c(=O)n(Cc4ccc(Cl)cc4)c(=O)n3C)n2C)CC(C)O1 (stereo not given)	active: 23.1 µM	
CCc1ccc(CNC(=O)CCCN2C(=O)CCn3nc(-c4cccn4C)cc32)cc1	inactive	
CCN(CC)S(=O)(=O)c1ccc(OC(C)C)c(NC(=O)C2=COCCO2)c1	active: 7.31 µM	
CC(C)c1cc(Cn2c3ccccc3c(=O)n2C(C)Cn2cc(CCc3ccccc3)nn2)on1 (stereo not given)	inconclusive: 4.61 µM [cytotoxic, partial curve]	
CCC1(C)CC2(CCCN(CCC(=O)c3ccccc3)C2)CCO1 (stereo not given)	inactive	
CCOC(=O)c1c(NC(=O)CC2SC(=NC)N(C)C2=O)sc(C)c1C (stereo not given)	active: 10.3 µM	
Cc1ccc(C(C(=O)NC(C)(C)C)N(Cc2ccco2)C(=O)Cn2nnc(-c3cccs3)n2)cc1 (stereo not given)	inconclusive: 1.03 µM [cytotoxic, partial curve, poor fit]	
CCOC(=O)c1c(/N=C/N(C)C)sc2c1CCC2	inconclusive: 29.1 µM [cytotoxic, single point]	

One compound at a time (already shown):
CCOC(=O)C(C)n1cnc2c(cnn2-c2ccc(Cl)cc2)c1=O (stereo not given) is entered as Potency: inactive
CC(c1ccccc1F)n1cc(C(=O)NCCc2ccco2)nn1 (stereo not given) is entered as Potency: inconclusive: 16.4 µM [cytotoxic, single point]
O=c1[nH]cnc(O)c1N=Nc1ccccc1 is entered as Potency: inconclusive: 32.6 µM [cytotoxic, single point]
O=C1/C(=C/c2ccncc2)CCc2ccccc21 is entered as Potency: active: 14.6 µM
